PubChem BioAssay AID1508588, Peter MacCallum Cancer Centre – 2020

- Purpose: 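Genome-wide search for knock-downs that heighten vemurafenib action in melanoma cells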 (primary screen)
- Cell system: human WM266.4 melanoma cells (BRAF V600 mutant)
- Reagents: siRNA pool against human genes, 40 nM
- Time to read-out: 96 h from transfection to read-out
- Treatment: vemurafenib 300 nM (about IC25), added 48 h after transfection, for 48 h; comparison arm got DMSO vehicle only
- Measured: 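Cell gain (DAPI nuclei at end minus before drug, mean of two replicates) and medium lactate by absorbance per cell, both as ratio to non-targeting siRNA, also grouped into fold-change classes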
- Scale: cell gain with vemurafenib: higher = more cell gain than with non-targeting siRNA; lactate per cell with vemurafenib: higher = more lactate made per cell
- Call rule: 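a knock-down counts as enhancing when its fold-change classes with vehicle and with vemurafenib, taken together, show a stronger drug effect on cell gain or lactate per cell; exact class pairs not stated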
- Calls: active = enhances vemurafenib effect; inactive = no enhancement seen
This is an unselected part of about 18,000 deposited reagents. Of all reagents, 790 (4.4%) are marked active. 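Calls rest on a combination of fold-change classes in drug and vehicle arms, not all shown here.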 A reagent listed more than once was tested more than once; the source does not tell the runs apart.

| gene symbol | cell gain with vemurafenib | lactate per cell with vemurafenib | call |
| --- | --- | --- | --- |
| RHOBTB2 (Rho related BTB domain containing 2) | 0.46 | 0.91 | inactive |
| ANXA2 (annexin A2) | 0.39 | 0.64 | inactive |
| SIGLEC8 (sialic acid binding Ig like lectin 8) | 0.3 | 1.11 | inactive |
| NPAS3 (neuronal PAS domain protein 3) | 0.54 | 0.6 | inactive |
| SPATC1 (spermatogenesis and centriole associated 1) | 0.31 | 1.08 | inactive |
| NELL2 (neural EGFL like 2) | 0.63 | 0.52 | inactive |
| SHC1 (SHC adaptor protein 1) | 0.83 | 0.44 | active |
| RUNX1 (RUNX family transcription factor 1) | 0.37 | 0.82 | inactive |
| FAM184A (family with sequence similarity 184 member A) | 1.02 | 0.61 | inactive |
| TIMM9 (translocase of inner mitochondrial membrane 9) | 0.46 | 0.78 | inactive |
| HSBP1 (heat shock factor binding protein 1) | 0.45 | 0.8 | inactive |
| XPNPEP3 (X-prolyl aminopeptidase 3) | 0.77 | 1.15 | inactive |
| IFT81 (intraflagellar transport 81) | 0.31 | 1.49 | inactive |
| MRPS12 (mitochondrial ribosomal protein S12) | 0.88 | 1.24 | inactive |
| CENPS (centromere protein S) | 0.51 | 1.02 | inactive |
| UFM1 (ubiquitin fold modifier 1) | 0.82 | 0.75 | inactive |
| PRKRIP1 (PRKR interacting protein 1) | 0.18 | 0.72 | inactive |
| CCAR1 (cell division cycle and apoptosis regulator 1) | 0.55 | -0.05 | active |
| ST6GAL2 (ST6 beta-galactoside alpha-2,6-sialyltransferase 2) | 0.44 | 0.74 | inactive |
| FGF22 (fibroblast growth factor 22) | 0.14 | 1.08 | inactive |
| RNASE8 (ribonuclease A family member 8) | 0.33 | 2.64 | inactive |
| RIPK1 (receptor interacting serine/threonine kinase 1) | 0.76 | 1.45 | inactive |
| LIMK2 (LIM domain kinase 2) | 0.67 | 1.22 | inactive |
| CLEC2D (C-type lectin domain family 2 member D) | 0.51 | 1.72 | inactive |
| RHOF (ras homolog family member F, filopodia associated) | 0.78 | 0.62 | inactive |
| ATF5 (activating transcription factor 5) | 0.42 | 0.7 | inactive |
| SLC6A14 | 0.58 | 1.09 | inactive |
| TNPO1 (transportin 1) | 0.74 | 0.57 | inactive |
| TGFB1 (transforming growth factor beta 1) | 0.36 | 1.2 | inactive |
| NAAA (N-acylethanolamine acid amidase) | 0.39 | 1.02 | inactive |
| ITGA7 (integrin subunit alpha 7) | 0.27 | 1.96 | inactive |
| MAN2B1 (mannosidase alpha class 2B member 1) | 0.64 | 0.86 | inactive |
| GDAP2 (ganglioside induced differentiation associated protein 2) | 0.57 | 1.09 | inactive |
| MAML1 (mastermind like transcriptional coactivator 1) | 0.39 | 0.66 | inactive |
| HTR3E (5-hydroxytryptamine receptor 3E) | 0.48 | 1.05 | inactive |
| HTR3E (5-hydroxytryptamine receptor 3E) | 0.61 | 1.25 | inactive |
| HTR3E (5-hydroxytryptamine receptor 3E) | 0.74 | 1.08 | inactive |
| BTF3 (basic transcription factor 3) | 0.63 | 1.09 | inactive |
| LTB4R2 (leukotriene B4 receptor 2) | 0.35 | 0.38 | inactive |
| RNF152 (ring finger protein 152) | 1 | 0.72 | inactive |
| OBI1 (ORC ubiquitin ligase 1) | 0.5 | 0.04 | inactive |
| AFF1 (ALF transcription elongation factor 1) | 0.24 | 1 | inactive |
| TC2N (tandem C2 domains, nuclear) | 0.97 | 0.7 | inactive |
| OR2Y1 (olfactory receptor family 2 subfamily Y member 1) | 0.65 | 0.34 | inactive |
| IBSP (integrin binding sialoprotein) | 0.02 | 1.58 | inactive |
| COG2 (component of oligomeric golgi complex 2) | 0.91 | 0.66 | inactive |
| KPNA6 (karyopherin subunit alpha 6) | 0.78 | 0.74 | inactive |
| REC8 (REC8 meiotic cohesin complex component) | 0.4 | 0.95 | inactive |
| TTF1 (transcription termination factor 1) | 0.58 | 0.99 | inactive |
| PCDHA7 (protocadherin alpha 7) | 0.39 | 0.98 | inactive |
| SLC26A4 | 1.11 | 0.53 | inactive |
| LEFTY1 (left-right determination factor 1) | 0.76 | 0.57 | inactive |
| SLC39A9 | 0.11 | 1.17 | inactive |
| MLX (MAX dimerization protein MLX) | 0.4 | 0.8 | inactive |
| PRMT9 (protein arginine methyltransferase 9) | 0.41 | 0.88 | inactive |
| FOXD3 (forkhead box D3) | 0.97 | 0.84 | inactive |
| IFIT2 (interferon induced protein with tetratricopeptide repeats 2) | 0.37 | 0.64 | inactive |
| MALT1 (MALT1 paracaspase) | 0.44 | 0.94 | inactive |
| CBS (cystathionine beta-synthase) | 0.73 | 0.82 | inactive |
| LYG1 (lysozyme g1) | 0.57 | 0.38 | inactive |
| UGT1A4 (UDP glucuronosyltransferase family 1 member A4) | 0.55 | 1.5 | inactive |
| ARHGDIB (Rho GDP dissociation inhibitor beta) | 0.99 | 0.7 | inactive |
| TMEM234 (transmembrane protein 234) | 0.45 | 0.6 | inactive |
| SOX2 (SRY-box transcription factor 2) | 0.68 | 0.74 | inactive |
| DNM1 (dynamin 1) | 0.69 | 1.29 | inactive |
| ACTBL2 (actin beta like 2) | 0.04 | -0.18 | active |
| WDR46 (WD repeat domain 46) | 0.45 | 1.13 | inactive |
| DSC3 (desmocollin 3) | 0.29 | 1.21 | inactive |
| ARL5B (ARF like GTPase 5B) | 0.51 | 0.91 | inactive |
| EFS (embryonal Fyn-associated substrate) | 0.51 | 1.96 | inactive |
| SLC30A2 | 0.37 | 0.9 | inactive |
| CCDC81 (coiled-coil domain containing 81) | 0.67 | 0.64 | inactive |
| CDK4 (cyclin dependent kinase 4) | 0.95 | 0.61 | inactive |
| OSR1 (odd-skipped related transcription factor 1) | 1.21 | 0.78 | inactive |
| RPS8 (ribosomal protein S8) | 0.03 | 0.53 | inactive |
| RAP1GDS1 (Rap1 GTPase-GDP dissociation stimulator 1) | 0.67 | 1.19 | inactive |
| FKBP15 (FKBP prolyl isomerase family member 15) | 0.37 | 1.7 | inactive |
| SLC1A1 | 0.66 | 1 | inactive |
| LINC01599 (long independently transcribed non-coding RNA 1599) | 0.41 | 0.75 | inactive |
| RPP25 (ribonuclease P/MRP subunit p25) | 0.21 | 1.04 | inactive |
| OR5L1 (olfactory receptor family 5 subfamily L member 1) | 0.28 | 0.66 | inactive |
| ZAN (zonadhesin) | 1 | 1.48 | inactive |
| CLRN1 (clarin 1) | 0.44 | 1.46 | inactive |
| LCN12 (lipocalin 12) | 1.09 | 0.68 | inactive |
